# Measurements as given in PMC8384837.
# Changes are numbered by the printed parent chain. Some of the results follow. For some assays here: At the low end of the ranking the order means little.
# Key:
# Conditions in all cases: yeast three-hybrid, YBZ-1, SC-Leu-His + 0.5 mM 3-AT, 4 days
# [1] = target: T1, PUM1 PUF domain R2-VFQ R3-THE R4-TFR N899V + Y900F + C935T + R936H + Q939E + N971T + H972F + Q975R (UniProt Q14671)
# T1 sequence: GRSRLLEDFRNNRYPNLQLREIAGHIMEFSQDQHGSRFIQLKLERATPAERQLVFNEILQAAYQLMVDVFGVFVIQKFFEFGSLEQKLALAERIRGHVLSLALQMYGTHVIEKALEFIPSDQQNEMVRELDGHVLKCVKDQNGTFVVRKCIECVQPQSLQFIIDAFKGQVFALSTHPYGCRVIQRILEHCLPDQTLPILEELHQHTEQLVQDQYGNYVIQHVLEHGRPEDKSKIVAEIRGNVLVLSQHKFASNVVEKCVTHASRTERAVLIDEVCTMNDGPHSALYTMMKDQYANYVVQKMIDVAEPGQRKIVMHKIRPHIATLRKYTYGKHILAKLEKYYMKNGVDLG
# [2] = target: T2, PUM1 PUF domain R3-THE R4-TFR C935T + R936H + Q939E + N971T + H972F + Q975R (UniProt Q14671)
# T2 sequence: T1 sequence with V72N, F73Y
# [3] = target: T3, PUM1 PUF domain R3-THE R4-TFR R7-NPG C935T + R936H + Q939E + N971T + H972F + Q975R + S1079N + N1080P + E1083G (Homo sapiens) (UniProt Q14671)
# T3 sequence: T1 sequence with V72N, F73Y, S252N, N253P, E256G
Sequence,binding signal (log2 enrichment (interaction score)) [1],binding signal (log2 enrichment (interaction score)) [2],binding signal (log2 enrichment (interaction score)) [3]
GGCUAGAACUAGUGGAUCCCCCGGCGCCCGGCGGCUCGAGCCCGGGUAAGUUGACGGGGUCUGCAUGCCGCCGGGCGCCAUGCCUGCAGGUCGACUCUAGAAAACAUG,-5.02,-6.97,
GGCUAGAACUAGUGGAUCCCCCGGCGCCCGGCGGCUCGAGCCCGGGUAAGUGGAUCUAGUCUGCAUGCCGCCGGGCGCCAUGCCUGCAGGUCGACUCUAGAAAACAUG,-5.03,-7.03,
GGCUAGAACUAGUGGAUCCCCCGGCGCCCGGCGGCUCGAGCCCGGGUAAGUCUAAGACGUCUGCAUGCCGCCGGGCGCCAUGCCUGCAGGUCGACUCUAGAAAACAUG,-4.6,< -7.89,
GGCUAGAACUAGUGGAUCCCCCGGCGCCCGGCGGCUCGAGCCCGGGUAAGGCUGCAGAGUCUGCAUGCCGCCGGGCGCCAUGCCUGCAGGUCGACUCUAGAAAACAUG,-2.86,< -6.71,
GGCUAGAACUAGUGGAUCCCCCGGCGCCCGGCGGCUCGAGCCCGGGUAAGUUUACGCUGUCUGCAUGCCGCCGGGCGCCAUGCCUGCAGGUCGACUCUAGAAAACAUG,-6.03,-6.8,
GGCUAGAACUAGUGGAUCCCCCGGCGCCCGGCGGCUCGAGCCCGGGUAAGUUUACAGGGUCUGCAUGCCGCCGGGCGCCAUGCCUGCAGGUCGACUCUAGAAAACAUG,-5.51,-7.15,
GGCUAGAACUAGUGGAUCCCCCGGCGCCCGGCGGCUCGAGCCCGGGUAAGUUUACGCAGUCUGCAUGCCGCCGGGCGCCAUGCCUGCAGGUCGACUCUAGAAAACAUG,-5.99,-6.38,
GGCUAGAACUAGUGGAUCCCCCGGCGCCCGGCGGCUCGAGCCCGGGUAAGUUUCCGAGGUCUGCAUGCCGCCGGGCGCCAUGCCUGCAGGUCGACUCUAGAAAACAUG,-5.99,-6.78,
GGCUAGAACUAGUGGAUCCCCCGGCGCCCGGCGGCUCGAGCCCGGGUAAGUCUAAACAGUCUGCAUGCCGCCGGGCGCCAUGCCUGCAGGUCGACUCUAGAAAACAUG,-5.71,< -6.52,
GGCUAGAACUAGUGGAUCCCCCGGCGCCCGGCGGCUCGAGCCCGGGUAAGAUGACAUAGUCUGCAUGCCGCCGGGCGCCAUGCCUGCAGGUCGACUCUAGAAAACAUG,-5.14,-5.23,
GGCUAGAACUAGUGGAUCCCCCGGCGCCCGGCGGCUCGAGCCCGGGUAAGCGGGCGUAGUCUGCAUGCCGCCGGGCGCCAUGCCUGCAGGUCGACUCUAGAAAACAUG,-3.92,< -6.25,
GGCUAGAACUAGUGGAUCCCCCGGCGCCCGGCGGCUCGAGCCCGGGUAAGAUUUCAGAGUCUGCAUGCCGCCGGGCGCCAUGCCUGCAGGUCGACUCUAGAAAACAUG,-5.95,-7.34,
GGCUAGAACUAGUGGAUCCCCCGGCGCCCGGCGGCUCGAGCCCGGGUAAGUUUAUAUCGUCUGCAUGCCGCCGGGCGCCAUGCCUGCAGGUCGACUCUAGAAAACAUG,-5.93,< -7.16,
GGCUAGAACUAGUGGAUCCCCCGGCGCCCGGCGGCUCGAGCCCGGGUAAGGUUGCGCCGUCUGCAUGCCGCCGGGCGCCAUGCCUGCAGGUCGACUCUAGAAAACAUG,-5.62,-7.11,
GGCUAGAACUAGUGGAUCCCCCGGCGCCCGGCGGCUCGAGCCCGGGUAAGCGUAGGUAGUCUGCAUGCCGCCGGGCGCCAUGCCUGCAGGUCGACUCUAGAAAACAUG,-5.62,-7.51,
GGCUAGAACUAGUGGAUCCCCCGGCGCCCGGCGGCUCGAGCCCGGGUAAGAUAACGAGGUCUGCAUGCCGCCGGGCGCCAUGCCUGCAGGUCGACUCUAGAAAACAUG,-5.21,< -7.09,
GGCUAGAACUAGUGGAUCCCCCGGCGCCCGGCGGCUCGAGCCCGGGUAAGUUUACUGAGUCUGCAUGCCGCCGGGCGCCAUGCCUGCAGGUCGACUCUAGAAAACAUG,-5.48,< -6.14,
GGCUAGAACUAGUGGAUCCCCCGGCGCCCGGCGGCUCGAGCCCGGGUAAGAGUUAGACGUCUGCAUGCCGCCGGGCGCCAUGCCUGCAGGUCGACUCUAGAAAACAUG,-5.62,< -7.55,
GGCUAGAACUAGUGGAUCCCCCGGCGCCCGGCGGCUCGAGCCCGGGUAAGGGGAGGAUGUCUGCAUGCCGCCGGGCGCCAUGCCUGCAGGUCGACUCUAGAAAACAUG,-5.68,< -6.81,
GGCUAGAACUAGUGGAUCCCCCGGCGCCCGGCGGCUCGAGCCCGGGUAAGUAAAAGUCGUCUGCAUGCCGCCGGGCGCCAUGCCUGCAGGUCGACUCUAGAAAACAUG,< -6.53,< -6.97,
GGCUAGAACUAGUGGAUCCCCCGGCGCCCGGCGGCUCGAGCCCGGGUAAGUCUAAGGUGUCUGCAUGCCGCCGGGCGCCAUGCCUGCAGGUCGACUCUAGAAAACAUG,-4.65,< -6.83,< -1.01
GGCUAGAACUAGUGGAUCCCCCGGCGCCCGGCGGCUCGAGCCCGGGUAAGAGUUCCUUGUCUGCAUGCCGCCGGGCGCCAUGCCUGCAGGUCGACUCUAGAAAACAUG,-5.4,-6.4,
GGCUAGAACUAGUGGAUCCCCCGGCGCCCGGCGGCUCGAGCCCGGGUAAGUGAAGCCGGUCUGCAUGCCGCCGGGCGCCAUGCCUGCAGGUCGACUCUAGAAAACAUG,-4.83,-5.12,

# Laid out differently: results already given
Sequence	binding signal (log2 enrichment (interaction score)) [1]	binding signal (log2 enrichment (interaction score)) [2]	binding signal (log2 enrichment (interaction score)) [3]
GGCUAGAACUAGUGGAUCCCCCGGCGCCCGGCGGCUCGAGCCCGGGUAAGUUUACGCUGUCUGCAUGCCGCCGGGCGCCAUGCCUGCAGGUCGACUCUAGAAAACAUG	-6.03	-6.8	
GGCUAGAACUAGUGGAUCCCCCGGCGCCCGGCGGCUCGAGCCCGGGUAAGUUUACUGAGUCUGCAUGCCGCCGGGCGCCAUGCCUGCAGGUCGACUCUAGAAAACAUG	-5.48	< -6.14	
